The match of structure and compound is tentative.
Biological target: human β3 adrenergic receptor (Homo sapiens, UniProt P13945)
Assay: Functional assay: cAMP production in CHO cells stably transfected with cloned β3-adrenergic receptor (LANCE TR-FRET)
Type: cell-based
Conditions: read-out: Human β3 agonist functional activity, Table 1
Method: cAMP production in response to ligand is measured according to Barton, et al. (1991, Agonist-induced desensitization of D2 dopamine receptors in human Y-79 retinoblastoma cells. Mal. Pharmacol. v3229:650-658) modified as follows. cAMP production is measured using a homogenous time-resolved fluorescence resonance energy transfer immunoassay (LANCE™, Perkin Elmer) according to the manufacture's instructions. Chinese hamster ovary (CHO) cells, stably transfected with the cloned β-adrenergic receptor (β1, β2 or β3) are harvested after 3 days of subculturing. Harvesting of cells is done with Enzyme-free Dissociation. Media (Specialty Media). Cells are then counted and resuspended in assay buffer (Hank's Balanced salt solution supplemented with 5 mM HEPES, 0.1% BSA) containing a phosphodiesterase inhibitor (IBMX, 0.6 mM). The reaction is initiated by mixing 6,000 cells in 6 μL with 6 μL Alexa Fluor labeled cAMP antibody (LANCE™ kit) which is then added to an assay well containing 12 μL of compound (diluted in assay buffer to 2× final concentration). The reaction proceeds for 30 min at room temperature and is terminated by the addition of 24 μL detection buffer (LANCE™ kit). The assay plate is then incubated for 1 h at room temperature and time-resolved fluorescence measured on a Perkin Elmer Envision reader or equivalent. The unknown cAMP level is determined by comparing fluorescence levels to a cAMP standard curve.
The non-selective, full agonist β-adrenergic ligand isoproterenol is used at all three receptors to determine maximal stimulation. The human β3 adrenergic receptor (AR) selective ligand (S)—N-[4-[2-[[2-hydroxy-3-(4-hydroxyphenoxy)propyl]amino]ethyl]-phenyl]-4-iodobenzenesulfonamide is used as a control in all assays. Isoproterenol is titrated at a final concentration in the assay of 10^-10 M to 10-5 and the selective ligand (S)—N-[4-[2-[[2-hydroxy-3-(4-hydroxyphenoxy)propyl]amino]ethyl]phenyl]-4-iodobenzenesulfonamide is titrated at the β3 receptor at concentration of 10^-10 M to 10^-5 M. Unknown ligands are titrated at all 3β-adrenergic receptor subtypes at a final concentration in the assay of 10^-10 M to 10^-5 M to determine the EC50. The EC50 is defined as the concentration of compound that gives 50% activation of its own maximum. Data are analyzed using Microsoft Excel and Graphpad Prism or an internally developed data analysis software package.

Amino acid sequences for entries named in this document (tags omitted).
UniProt P13945, whole entry: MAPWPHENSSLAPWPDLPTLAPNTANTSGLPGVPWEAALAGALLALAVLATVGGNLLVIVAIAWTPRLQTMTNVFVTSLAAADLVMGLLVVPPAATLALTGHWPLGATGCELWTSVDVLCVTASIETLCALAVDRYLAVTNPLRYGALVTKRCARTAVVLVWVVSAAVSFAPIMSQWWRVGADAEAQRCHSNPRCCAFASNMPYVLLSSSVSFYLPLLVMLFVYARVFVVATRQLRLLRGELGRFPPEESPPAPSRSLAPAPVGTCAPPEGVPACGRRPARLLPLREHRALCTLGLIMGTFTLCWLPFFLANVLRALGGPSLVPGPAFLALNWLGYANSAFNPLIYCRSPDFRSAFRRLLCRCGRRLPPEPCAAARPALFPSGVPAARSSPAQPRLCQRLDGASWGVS

Row | Compound | EC50 [nM]
1 | O[C@H](c1cccnc1)[C@H]1CC[C@@H](Cc2ccc3nc(CCn4ncc5ccccc54)[nH]c3c2)N1 | 11 to 100
2 | CC(c1cscn1)c1nc2ccc(C[C@@H]3CC[C@H]([C@H](O)c4ccccc4)N3)cc2[nH]1 (stereo partly drawn) | 11 to 100
3 | O[C@H](c1ccccc1)[C@H]1CC[C@@H](Cc2ccc3nc(Cn4ncc5ccccc54)[nH]c3c2)N1 | 101 to 1000
4 | O[C@H](c1ccccc1)[C@H]1CC[C@@H](Cc2ccc3nc(CCc4cnccn4)[nH]c3c2)N1 | 101 to 1000
5 | O[C@H](c1ccccc1)[C@H]1CC[C@@H](Cc2ccc3nc(CCn4cccn4)[nH]c3c2)N1 | 101 to 1000
6 | O[C@H](c1ccccc1)[C@H]1CC[C@@H](Cc2ccc3nc(CCn4ccnc4)[nH]c3c2)N1 | 101 to 1000
7 | Cc1nc2c(s1)CCCC2c1nc2ccc(C[C@@H]3CC[C@H]([C@H](O)c4ccccc4)N3)cc2[nH]1 (single isomer, unassigned) | 101 to 1000
8 | C[C@@H](c1nc2ccc(C[C@@H]3CC[C@H]([C@H](O)c4ccccc4)N3)cc2[nH]1)n1cnccc1=O | 101 to 1000
9 | O[C@H](c1ccccc1)[C@H]1CC[C@@H](Cc2ccc3nc(Cn4cccn4)[nH]c3c2)N1 | 101 to 1000

From patent US8748433B2, “β3 adrenergic receptor agonists” (Merck Sharp & Dohme Corp., priority 2010, dated 2014)
